# According to PubChem BioAssay AID256 (DTP/NCI, 2004):
# The list does not hold the whole screen: its compounds were picked by chemical class. Other doses and runs of a compound may be missing. T/C is the treated group as % of the vehicle group. For survival time, the PubChem record calls one and a half times the control and up active, and a quarter to a half above the control has no call in these data; cut-offs in other NCI protocols can differ. Schedules are NCI's codes, read here as Q, the interval in days (D) or hours (H), X, the number of doses. Some T/C values are marked as having no survivor count here; that says nothing about deaths at the dose. Some entries hold several experiments; their values stand side by side, smallest first.
# Test system: CD2F1 mice, L1210 leukemia ip, survival T/C
# Experiment: NCI In Vivo Anticancer Drug Screen. Data for tumor model L1210 Leukemia (intraperitoneal) in CD2F1 (CDF1) mice
# Settings: schedule: Q01DX009 (ip), higher T/C = longer survival
# Protocol: The antitumor activity of compounds was measured in mice bearing transplantable tumors. Survival or tumor size were measured and the results are expressed as the measurement made in the treated group (T) divided by the measurement made in the vehicle treated control group (C). The tumor model used in this assay is L1210 Leukemia (intraperitoneal) in CD2F1 (CDF1) mice
smiles,measurement,setting,value
CC(=O)OC[C@]12CC(=O)C(C)=C[C@H]1O[C@@H]1C(=O)[C@@H](OC(C)=O)[C@@]2(C)[C@@]12CO2,T/C,"T/C endpoint: median survival time, dose: 0.12 mg/kg/injection, vehicle: water",111 % of control [survivor count not shown]
same,T/C,"T/C endpoint: median survival time, dose: 0.25 mg/kg/injection, vehicle: water","112 [survivor count not shown], 113 [survivor count not shown], 115 [survivor count not shown], 134 % of control [survivor count not shown]"
same,T/C,"T/C endpoint: median survival time, dose: 0.5 mg/kg/injection, vehicle: water","114 [survivor count not shown], 119 [survivor count not shown], 121 % of control [survivor count not shown]"
same,T/C,"T/C endpoint: median survival time, dose: 1.0 mg/kg/injection, vehicle: water","112 [survivor count not shown], 123 [survivor count not shown], 132 % of control [survivor count not shown]"
same,T/C,"T/C endpoint: median survival time, dose: 2.0 mg/kg/injection, vehicle: water","133 [survivor count not shown], 134 [survivor count not shown], 138 % of control [survivor count not shown]"
same,T/C,"T/C endpoint: median survival time, dose: 4.0 mg/kg/injection, vehicle: water",139 [survivor count not shown] and 159 % of control [survivor count not shown]
CC1=C[C@H]2O[C@@H]3C[C@H]4OC(=O)/C=C\C=C\C5OC(C/C(C)=C\C(=O)OCC2(CC1)[C@]4(C)[C@]31CO1)OC5C (stereo not given in full),T/C,"T/C endpoint: mean survival time, dose: 0.78 mg/kg/injection, vehicle: saline + Tween-80 + alcohol",110 % of control [survivor count not shown]
same,T/C,"T/C endpoint: mean survival time, dose: 0.78 mg/kg/injection, vehicle: saline with Tween-80",100 % of control [survivor count not shown]
same,T/C,"T/C endpoint: mean survival time, dose: 1.56 mg/kg/injection, vehicle: saline + Tween-80 + alcohol",108 % of control [survivor count not shown]
same,T/C,"T/C endpoint: mean survival time, dose: 1.56 mg/kg/injection, vehicle: saline with Tween-80",98 % of control [survivor count not shown]
same,T/C,"T/C endpoint: mean survival time, dose: 3.12 mg/kg/injection, vehicle: saline + Tween-80 + alcohol",112 % of control [survivor count not shown]
same,T/C,"T/C endpoint: mean survival time, dose: 6.25 mg/kg/injection, vehicle: saline + Tween-80 + alcohol",110 % of control [survivor count not shown]
same,T/C,"T/C endpoint: mean survival time, dose: 12.5 mg/kg/injection, vehicle: saline + Tween-80 + alcohol",125 % of control [survivor count not shown]
C[C@@H](O)[C@H]1/C=C/C=C\C(=O)O[C@@H]2C[C@H]3O[C@@H]4[C@@H]5OC5(C)CCC4(COC(=O)[C@H]4O[C@]4(C)[C@@H](O)CO1)[C@]2(C)[C@]31CO1 (stereo not given in full),T/C,"T/C endpoint: mean survival time, dose: 1.25 mg/kg/injection, vehicle: saline + Tween-80 + alcohol",126 % of control [survivor count not shown]
same,T/C,"T/C endpoint: mean survival time, dose: 1.25 mg/kg/injection, vehicle: saline + alcohol",111 % of control [survivor count not shown]
same,T/C,"T/C endpoint: mean survival time, dose: 2.5 mg/kg/injection, vehicle: saline + Tween-80 + alcohol",137 % of control [survivor count not shown]
same,T/C,"T/C endpoint: mean survival time, dose: 2.5 mg/kg/injection, vehicle: saline + alcohol",117 % of control [survivor count not shown]
same,T/C,"T/C endpoint: mean survival time, dose: 5.0 mg/kg/injection, vehicle: saline + alcohol",128 [survivor count not shown] and 132 % of control [survivor count not shown]
same,T/C,"T/C endpoint: mean survival time, dose: 10.0 mg/kg/injection, vehicle: saline + alcohol",115 [survivor count not shown] and 118 % of control [survivor count not shown]
same,T/C,"T/C endpoint: mean survival time, dose: 20.0 mg/kg/injection, vehicle: saline + alcohol",132 % of control [survivor count not shown]
same,T/C,"T/C endpoint: mean survival time, dose: 40.0 mg/kg/injection, vehicle: saline + alcohol",117 [survivor count not shown] and 157 % of control [survivor count not shown]
CC1=C[C@H]2O[C@@H]3C[C@H]4OC(=O)/C=C\C=C\[C@H]([C@@H](C)O)OC[C@H](O)[C@@]5(C)O[C@@H]5C(=O)OC[C@@]2(C[C@H]1O)[C@]4(C)C31CO1 (stereo not given in full),T/C,"T/C endpoint: mean survival time, dose: 0.15 mg/kg/injection, vehicle: Klucel (hydroxypropylcellulose) (HPC)",104 % of control [survivor count not shown]
same,T/C,"T/C endpoint: mean survival time, dose: 0.62 mg/kg/injection, vehicle: Klucel (hydroxypropylcellulose) (HPC)",119 % of control [survivor count not shown]
same,T/C,"T/C endpoint: mean survival time, dose: 1.25 mg/kg/injection, vehicle: Klucel (hydroxypropylcellulose) (HPC)",114 % of control [survivor count not shown]
same,T/C,"T/C endpoint: mean survival time, dose: 5.0 mg/kg/injection, vehicle: Klucel (hydroxypropylcellulose) (HPC)",86 % of control [survivor count not shown]
